Experimental data as given in patent US20200237786A1, “DIAGNOSIS AND TREATMENT OF ENDOMETRIOSIS BY SCREENING FOR L-FORM BACTERIA” (Soft Cell Biological Research, LLC, priority 2017, published 2020).
At least one structure is not confirmed: it was looked up by name or label, or the drawing left a doubt.

Test system: Bacterial strains identified in Example 5
Assay: Antibiotic sensitivity by diffusion disk test of strains cultured from each subject
Type: cell-based
Experimental: The disclosure is based, in part, on the recognition that certain L-form bacteria are sensitive to (e.g., not resistant to treatment with) specific antibiotic agents. In some embodiments, resistance to antibiotic agents is tested by a diffusion tab (diffusion disk) test, for example as described in Reller et al. (2009) Clinical Infectious Diseases, 49(11): 1749-1755. However, the skilled artisan recognizes that additional methods of antibiotic sensitivity testing may also be used.
Bacterial strains identified in Example 5 were tested for antibiotic sensitivity by a diffusion disk test. […] Resistance to Oxacillin was also observed in the M. maritypicum samples.

[1] = strains cultured from subject 1538
[2] = strains cultured from subject 1545
[3] = strains cultured from subject 1636
[4] = strains cultured from subject 1661
[5] = strains cultured from subject 3025
[6] = strains cultured from subject 1619
[7] = strains cultured from subject 3104
[8] = strains cultured from subject 3164

CCC[C@@H]1C[C@@H](C(=O)N[C@@H]([C@H]2O[C@H](SC)[C@H](O)[C@@H](O)[C@H]2O)[C@H](C)Cl)N(C)C1 [Clindamycin]
Resistance? [1]: Clindamycin
Resistance? [2]: Trimeth, Clindamycin
Resistance? [3]: Clindamycin
Resistance? (strains cultured from subject 1644): Clindamycin
Resistance? [4]: Clindamycin
Resistance? (strains cultured from subject 3016): Clindamycin
Resistance? [5]: Clinamycin

C[C@H]1c2cccc(O)c2C(=O)C2=C(O)[C@]3(O)C(=O)C(C(N)=O)=C(O)[C@@H](N(C)C)[C@@H]3[C@@H](O)[C@@H]21 [Doxycycline]
Most Effective Oral Antibiotic [2]: Doxycycline
Most Effective Oral Antibiotic (strains cultured from subject 1609): Doxycycline
Most Effective Oral Antibiotic [6]: Doxycycline
Most Effective Oral Antibiotic [3]: Doxycycline
Most Effective Oral Antibiotic (strains cultured from subject 1642): Doxycycline
Most Effective Oral Antibiotic [4]: Doxycycline
Most Effective Oral Antibiotic (strains cultured from subject 1842): Doxycycline
Most Effective Oral Antibiotic [7]: Doxycycline
Most Effective Oral Antibiotic [8]: Doxycycline

C[C@@H](O)[C@H]1C(=O)N2C(C(=O)O)=C(SCCN=CN)C[C@H]12 [Imipenem]
Most Effective IV Antibiotic [1]: Imipenem
Most Effective IV Antibiotic [6]: Imipenem
Most Effective IV Antibiotic [3]: Imipenem
Most Effective IV Antibiotic [4]: Imipenem
Most Effective IV Antibiotic (strains cultured from subject 1905): Imipenem
Most Effective IV Antibiotic [5]: Imipenem
Most Effective IV Antibiotic [7]: Imipenem
Most Effective IV Antibiotic [8]: imipenem
